Experimental findings from patent US20160367664A1 are described below.

The chains behind the UniProt entries cited, without tags or fusion partners. Residues count along the entry.
UniProt P14784: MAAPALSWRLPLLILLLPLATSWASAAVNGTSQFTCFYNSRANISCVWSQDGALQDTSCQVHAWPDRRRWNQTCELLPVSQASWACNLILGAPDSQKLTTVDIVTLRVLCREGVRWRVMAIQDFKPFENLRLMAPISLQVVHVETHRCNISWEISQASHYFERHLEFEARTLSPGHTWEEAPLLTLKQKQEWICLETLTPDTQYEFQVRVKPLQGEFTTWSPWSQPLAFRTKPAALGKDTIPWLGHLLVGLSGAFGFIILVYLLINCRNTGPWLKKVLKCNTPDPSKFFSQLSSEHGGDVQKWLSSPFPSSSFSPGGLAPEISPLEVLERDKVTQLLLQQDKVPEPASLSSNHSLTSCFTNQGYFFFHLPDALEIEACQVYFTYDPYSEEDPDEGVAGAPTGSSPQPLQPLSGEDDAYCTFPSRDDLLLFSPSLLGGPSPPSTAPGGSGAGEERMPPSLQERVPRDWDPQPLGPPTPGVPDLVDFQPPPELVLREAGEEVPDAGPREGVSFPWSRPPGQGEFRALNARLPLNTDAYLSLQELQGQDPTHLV
UniProt P31785, residues 23-262: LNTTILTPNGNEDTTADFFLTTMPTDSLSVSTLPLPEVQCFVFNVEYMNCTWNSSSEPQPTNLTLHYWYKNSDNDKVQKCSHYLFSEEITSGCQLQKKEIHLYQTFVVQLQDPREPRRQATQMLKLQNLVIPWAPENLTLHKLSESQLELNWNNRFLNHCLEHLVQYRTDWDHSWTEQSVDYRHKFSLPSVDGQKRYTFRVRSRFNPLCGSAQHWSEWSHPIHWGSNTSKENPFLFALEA

These are yes or no findings as the source states them, for the method shown. Some results given as binding are weak or reduced against the parent protein; the word gives no strength.

Assay [1] deals with recombinant human interleukin 2 receptor β (IL-2Rβ; CD122) (human) (UniProt P14784). The experiment in a line: ELISA on IL-2Rβ, scFv titrated. For orientation: ELISA stands for enzyme-linked immunosorbent assay.
The target is the same in assay [2]. The experiment in a line: ELISA.
For assay [3] the target is unchanged. The experiment in a line: ELISA on IL-2Rβ after heating the clone for 4 hours at the given temperature.
Assay [4] has the same target. The experiment in a line: ELISA before and after heating.
In assay [5] the target is recombinant human common γ chain (γc; CD132) (human) (UniProt P31785). The experiment in a line: ELISA on γc (IL-2Rγc), scFv titrated.
For assay [6] the target is unchanged. The experiment in a line: ELISA.

B1: P2C4_FW2 single chain antibody (scFv)
scFv: EVQLVQSGAEVKKPGASVKVSCKASGYTFTNYYMHWVRQAPGQGLEWMGAIMPSRGGTSYPQKFQGRVTITADKSTSTAYMELSSLRSEDTAVYYCARGEYYYDSSGYYYWGQGTLVTVSSGGGGSGGGGSGGGGSQSVLTQPPSVSGAPGQRVTISCTGTSSDIGHYDFVSWYQQLPGTAPKLLIYDINNRPSGVPDRFSGSKSGTSASLAITGLQAEDEADYYCSAYTSSDTLVFGGGTKLTVL
With B1, the binding entry in assay [1] and in assay [2] was “binds” in each case.

B2: P2C4 (antibody, V domains shown)
VH: EVQLVQSGAEVKKPGSSVKVSCKASGYTFTNYYMHWVRQAPGQGLEWMGAIMPSRGGTSYPQKFQGRVTMTGDTSTSTVYMELSSLRSEDTAVYYCARGEYYYDSSGYYYWGQGTLVTVSS
VL: QSALTQPASVSGSPGQSIAISCTGTSSDIGHYDFVSWYQQHPGTAPKLIIYDINNRPSGISNRFSGSKSDNMASLTISGLQPEDEADYYCSAYTSSDTLVFGGGTKLT
For B2, the binding result in assay [3] and in assay [4] was “binds” throughout.

B3: P1A3_FW2 single chain antibody (scFv)
scFv: EVQLVESGGGLVQPGGSLRLSCAASGGSFSGYYWSWVRQAPGKGLEWVSEINHSGSTNYNPSLKSRFTISRDNSKNTLYLQMNSLRAEDTAVYYCARSPGGYSGGYFQHWGQGTLVTVSSGGGGSGGGGSGGGGSDIQMTQSPSSLSASVGDRVTITCRSSQSLLHSNGYNYLDWYQQKPGKAPKLLIYLGSNRDSGVPSRFSGSGSGTDFTLTISSLQPEDFATYYCMQGTHWPWTFGQGTKVEIK
As to B3, the binding result in assay [5] and in assay [6] was “binds” throughout.

B4: P2C4_E3 (antibody)
scFv: EVQLVQSGAEVKKPGSSVKVSCKASGYTFTNYYIHWVRQAPGQGLEWMGAIMPSRGGTSYPQKFQGRVTMTGDTSTSTVYMELNSLRSEDTAVYYCARGEYYYDSSGYYYWGQGTLVTVSSGGGGSGGGGSGGGGSQSALTQPASVSGSPGQSIAISCTGTSSDIGHYDFVSWYQQHPGTAPKLIIYDINNRPSGISNRFSGSKSDNMASLTISGLQPEDEADYYCSAYTSSDTVVFGGGTKLTVLAAAHHHHHH
B4: the binding entry in assay [3] and in assay [4] was “binds” in each case.

B5: P2C4_G2 (antibody)
scFv: EVQLVQSGAEVKKPGSSVKVSCKASGYTFTNYYMHWVRQAPGQGLEWMGAIMPSRGGTSYPQKFQGRVTMTGDTSTSTVYMELSSLRTEDTAVYYCARGEYYYDSSGYYYWGQGTLVTVSSGGGGSGGGGSGGVGSQSALTQPASVSGSPGQSIAISCTGTSSDIGHYDFVSWYQQHPGTAPKLIIYDINNRPSGISNRFSGSKSDNMASLTISGLQPEDEADYYCSAYTSSDTVVFGGGTKLTVLAAAHHHHHH
With B5, the binding entry in assay [3] and in assay [4] was “binds” in each case.

B6: P2C4_H1 (antibody)
scFv: EVQLVQSGAEVKKPGSSVKVSCKASGYTFTNYYMHWVRQAPGQGLEWMGAIMPSRGGTSYPQKFQGRVTMTGDTSTSTVYMELSSLRSEDTAVYYCARGEYYYDSSGYYYWGQGTLVNVSSGGGGSGGGGSGGGGSQSALTQPASVSGSPGQSIAISCTGTSSDIGHYDFVSWYQQHPGTAPKLIIYDINNRPSGISNRFSGSKSDNMASLTISGLQPEDEADYYCSAYTSSDTVVFGGGTKLTVLAAAHHHHHH
Consider B6, for which the binding entry in assay [3] and in assay [4] was “binds” in each case.

B7: P2C4_H2 (antibody)
scFv: EVQLVQSGAEVKKPGSSVKVSCKASGYTFSNYYMHWVRQAPGQGLEWIGAIMPSRGGTSYPQKFQGRVTMTGDTSTSTVYMELSSLRSEDTAVYYCARGEYYYDSSGYYYWGQGTLVTVSSGGGGSGGGGSGGGGSQSALTQPASVSGSPGQSIAISCTGTSSDIGHYDFVSWYQQHPGTAPKLIIYDINNRPSGISNRFSGSKSDNMASLTISGLQPEDEADYYCSAYTSSDTVVFGGGTKLTVLAAAHHHHHH
For B7, the binding entry in assay [3] and in assay [4] was “binds” each time.

B8: P2C4_G11 (antibody)
scFv: EVQLVQSGAEVKKPGSSVKVSCKASGYTFTNYYMHWVRQAPGQGLEWMGAIMPSRGGTSYPQKFQGRVTMTGDTSTSTVYMELSNLRSEDTAVYYCARGEYYYDSSGYYYWGQGTLVTVSSGGGGSGGGGSGGGGSQSALTQPASVSGSPGQSIAISCTGTSSDIGHYDFVSWYQQHPGTAPKLIIYDINNRPSGISNRFSGSKSDNMASLTISGLQPEDEADYYCSAYTSSDTVVFGGGTKLTVLAAAHHHHHH
Consider B8, for which the binding entry in assay [3] and in assay [4] was “binds” in each case.

B9: P2C4_E8 (antibody)
scFv: EVQLVQSGAEVKKPGSSVKVSCKASGYTFTNYYMHWVRQAPGQGLEWMGAIMPSRGGTSYPQKFQGRVTMTGDTSTSTVYMELSSLRSEDTAVYYCARGEYYYDSSGYYYWGPGTLVTVSSGGGGSGGGGSGGGGSQSALTQPASVSGSPGQSIAISCTGTSSDIGHYDFVSWYQQHPGTAPKLIIYDINNRPSGISNRFSGSKSDNMASLTISGLQPEDEADYYCSAYTSSDTVVFGGGTKLTVLAAAHHHHHH
On to B9, for which the binding entry in assay [3] and in assay [4] was “binds” each time.

B10: P2C4_C1D10 (antibody)
scFv: EVQLVQSGAEVKKPGSSVKVSCKASGYTFTNYYMHWVRQAPGQGLEWMGAIMPSRGGTSYPQKFQGRVTMTGDTSTSTVYMELSSLRSEDTAVYYCARGEYYYDSSGYYYWGQGTPVTVSSGGGGSGGGGSGGGGSQSALTQPASVSGSPGQSIAISCTGTSSDIGDYDFVSWYQQHPGTAPKLIIYDINNRPSGISNRFSGSKSDNMASLTISGLQPEDEADYYCSAYTSSDTVVFGGGTKLTVL
Turning to B10, the binding entry in assay [3] and in assay [4] was “binds” in each case.
